This passage reports binding results from patent US20230052369A1.

Protein sequences, listed by entry. Tags and fused reporters are not part of them. Residues count along the entry.
UniProt P15328, residues 25-234: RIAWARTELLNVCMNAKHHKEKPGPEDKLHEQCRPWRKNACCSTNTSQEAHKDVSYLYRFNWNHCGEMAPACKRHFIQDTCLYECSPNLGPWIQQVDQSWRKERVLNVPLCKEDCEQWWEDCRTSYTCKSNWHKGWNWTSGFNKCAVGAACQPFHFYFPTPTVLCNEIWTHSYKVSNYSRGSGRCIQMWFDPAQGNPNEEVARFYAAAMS

Assay [1] deals with recombinant His-tagged human FRα (human) (UniProt P15328). Briefly: BLI.
Assay [2] has the same target. Briefly: BLI, supernatant and purified. (In BLI a coated tip is dipped into the sample, and binding shifts an interference pattern.)
Assay [3] has the same target. Briefly: BLI, supernatant.

These are yes or no findings as the source states them, for the method shown. Some results given as binding are weak or reduced against the parent protein; the word gives no strength.

B1: v29676 (scFv)
scFv: DIQMTQSPSSLSASVGDRVTITCQASQSIYSSLAWYQQKPGKAPKLLIYDASHLASGVPSRFSGSRYGTDFTLTISSVQPEDFATYYCQGGWYSSAATYVPNTFGGGTKVEVKGGGGSGGGGSGGGGSEVQLVESGGGLVQPGGSLRLSCAASGFTISNNYYMCWVRQAPGKGLEWIACIYGGISGRTYYADSAKGRFTISKDSSNTVYLQMNSLRAEDTAVYYCVRGYVGTSNLWGQGTLVTVSS
On to B1, for which the binding entry in assay [1] is reported as “binds”.

B2: v29678 (scFv)
scFv: DIQMTQSPSSLSASVGDRVTITCQASQSIYSSLAWYQQKPGKAPKLLIYDASHLASGVPSRFSGSRYGTDFTLTISSVQPEDFATYYCQGGWYSSAATYVPNTFGGGTKVEVKGGGGSGGGGSGGGGSEVQLVESGGGLVQPGGSLRLSCAASGFTISNNYYMCWVRQAPGKGLEWIACIYGGISGRTYYADSAKGRFTISKDSSNTVYLQMNSLRAEDTAVYYCVRGYVGTSNLWGQGTLVTVSS
On to B2, for which the binding entry in assay [1] is reported as “binds”.

B3: v29682 (scFv)
scFv: DIQMTQSPSSLSASVGDRVTITCQASQSIYSSLAWYQQKPGKAPKLLIYDASHLASGVPSRFSGSRYGTDFTLTISSVQPEDFATYYCQGGWYSSAATYVPNTFGCGTKVEVKGGGGSGGGGSGGGGSEVQLVESGGGLVQPGGSLRLSCAASGFTISNNYYMCWVRQAPGKCLEWIACIYGGISGRTYYADSAKGRFTISKDSSNTVYLQMNSLRAEDTAVYYCVRGYVGTSNLWGQGTLVTVSS
For B3, the binding entry in assay [1] was “binds”.

B4: v29677 (scFv)
scFv: DIQMTQSPSSLSASVGDRVTITCQASQSIYSSLAWYQQKPGKAPKLLIYDASHLASGVPSRFSGSRYGTDFTLTISSVQPEDFATYYCQGGWYSSAATYVPNTFGGGTKVEVKGGSGGGSGGGSGGGSGGGSGEVQLVESGGGLVQPGGSLRLSCAASGFTISNNYYMCWVRQAPGKGLEWIACIYGGISGRTYYADSAKGRFTISKDSSNTVYLQMNSLRAEDTAVYYCVRGYVGTSNLWGQGTLVTVSS
For the molecule B4, the binding result in assay [1] is recorded as “binds”.

B5: v29684 (scFv)
scFv: DIQMTQSPSSLSASVGDRVTITCQASQSIYSSLAWYQQKPGKAPKLLIYDASHLASGVPSRFSGSRYGTDFTLTISSVQPEDFATYYCQGGWYSSAATYVPNTFGCGTKVEVKGGSGGGSGGGSGGGSGGGSGEVQLVESGGGLVQPGGSLRLSCAASGFTISNNYYMCWVRQAPGKCLEWIACIYGGISGRTYYADSAKGRFTISKDSSNTVYLQMNSLRAEDTAVYYCVRGYVGTSNLWGQGTLVTVSS
For the molecule B5, in assay [1], the binding entry was “binds”.

B6: v29680 (scFv)
scFv: DIQMTQSPSSLSASVGDRVTITCQASQSIYSSLAWYQQKPGKAPKLLIYDASHLASGVPSRFSGSRYGTDFTLTISSVQPEDFATYYCQGGWYSSAATYVPNTFGGGTKVEVKGGSGGGSGGGSGGGSGGGSGEVQLVESGGGLVQPGGSLRLSCAASGFTISNNYYMCWVRQAPGKGLEWIACIYGGISGRTYYADSAKGRFTISKDSSNTVYLQMNSLRAEDTAVYYCVRGYVGTSNLWGQGTLVTVSS
B6: the binding entry in assay [1] is given as “binds”.

B7: v29681 (scFv)
scFv: EVQLVESGGGLVQPGGSLRLSCAASGFTISNNYYMCWVRQAPGKGLEWIACIYGGISGRTYYADSAKGRFTISKDSSNTVYLQMNSLRAEDTAVYYCVRGYVGTSNLWGQGTLVTVSSGGSGGGSGGGSGGGSGGGSGDIQMTQSPSSLSASVGDRVTITCQASQSIYSSLAWYQQKPGKAPKLLIYDASHLASGVPSRFSGSRYGTDFTLTISSVQPEDFATYYCQGGWYSSAATYVPNTFGGGTKVEVK
For B7, the binding result in assay [1] is “binds”.

B8: v29685 (scFv)
scFv: EVQLVESGGGLVQPGGSLRLSCAASGFTISNNYYMCWVRQAPGKCLEWIACIYGGISGRTYYADSAKGRFTISKDSSNTVYLQMNSLRAEDTAVYYCVRGYVGTSNLWGQGTLVTVSSGGSGGGSGGGSGGGSGGGSGDIQMTQSPSSLSASVGDRVTITCQASQSIYSSLAWYQQKPGKAPKLLIYDASHLASGVPSRFSGSRYGTDFTLTISSVQPEDFATYYCQGGWYSSAATYVPNTFGCGTKVEVK
On to B8, for which, in assay [1], the binding entry is on record as “binds”.

B9: v23804 (antibody, human IgG1, kappa, V domains shown)
VH: EVQLVESGGGLVQPGGSLRLSCAASGFTISNNYYMCWVRQAPGKGLEWVSCIYGGISGRTYYADSVKGRFTISKDNSKNTLYLQMNSLRAEDTAVYYCVRGYVGTSNLWGQGTLVTVSS
VL: DIQMTQSPSSLSASVGDRVTITCQASQSIYSSLAWYQQKPGKAPKLLIYDASHLASGVPSRFSGSRYGTDFTLTISSVQPEDFATYYCQGGWYSSAATYVPNTFGGGTKVEVKR
Turning to B9, the binding result in assay [2] and in assay [3] was “binds” each time.

B10: v23806 (antibody, human IgG1, kappa, V domains shown)
VH: EVQLVESGGGLVQPGGSLRLSCAASGFTISNNYYMCWVRQAPGKGLEWIACIYGGISGRTYYADSAKGRFTISKDSSKNTVYLQMNSLRAEDTAVYYCVRGYVGTSNLWGQGTLVTVSS
VL: DIQMTQSPSSLSASVGDRVTITCQASQSIYSSLAWYQQKPGKAPKLLIYDASHLASGVPSRFSGSRYGTDFTLTISSVQPEDFATYYCQGGWYSSAATYVPNTFGGGTKVEVKR
Regarding B10, the binding result in assay [2] and in assay [3] was “binds” throughout.

B11: v23810 (antibody, human IgG1, kappa, V domains shown)
VH: EVQLVESGGGLVQPGGSLRLSCAASGFTISNNYYMCWVRQAPGKGLEWIACIYGGISGRTYYADSAKGRFTISKDNSKNTVYLQMNSLRAEDTAVYYCVRGYVGTSNLWGQGTLVTVSS
VL: DIQMTQSPSSLSASVGDRVTITCQASQSIYSSLAWYQQKPGKAPKLLIYDASHLASGVPSRFSGSGSGTDFTLTISSVQPEDAATYYCQGGWYSSAATYVPNTFGGGTKVEVKR
For B11, the binding entry in assay [3] was “binds”.

B12: v23807 (antibody, human IgG1, kappa, V domains shown)
VH: EVQLVESGGGLVQPGGSLRLSCAASGFTISNNYYMCWVRQAPGKGLEWIACIYGGISGRTYYADSAKGRFTISKDSSNTVYLQMNSLRAEDTAVYYCVRGYVGTSNLWGQGTLVTVSS
VL: DIQMTQSPSSLSASVGDRVTITCQASQSIYSSLAWYQQKPGKAPKLLIYDASHLASGVPSRFSGSRYGTDFTLTISSVQPEDFATYYCQGGWYSSAATYVPNTFGGGTKVEVKR
Consider B12, for which the binding result in assay [2] and in assay [3] was “binds” in each case.

B13: v23817 (antibody, human IgG1, kappa, V domains shown)
VH: EVQLVESGGGLVQPGGSLRLSCAASGFTISNNYYMCWVRQAPGKGLEWIACIYGGISGRTYYADSAKGRFTISKDSSNTVYLQMNSLRAEDTAVYYCVRGYVGTSNLWGQGTLVTVSS
VL: DIQMTQSPSSLSASVGDRVTITCQASQSIYSSLAWYQQKPGKAPKLLIYDASHLASGVPSRFSGSRYGTDFTLTISSVQPEDAATYYCQGGWYSSAATYVPNTFGGGTKVEVKR
Take B13: the binding result in assay [2] and in assay [3] was “binds” throughout.

B14: v23809 (antibody, human IgG1, kappa, V domains shown)
VH: EVQLVESGGGLVQPGGSLRLSCAASGFTISNNYYMCWVRQAPGKGLEWVSCIYGGISGRTYYADSVKGRFTISKDNSKNTLYLQMNSLRAEDTAVYYCVRGYVGTSNLWGQGTLVTVSS
VL: DIQMTQSPSSLSASVGDRVTITCQASQSIYSSLAWYQQKPGKAPKLLIYDASHLASGVPSRFSGSGSGTDFTLTISSVQPEDAATYYCQGGWYSSAATYVPNTFGGGTKVEVKR
As to B14, in assay [3], the binding entry is “binds”.

B15: v23816 (antibody, human IgG1, kappa, V domains shown)
VH: EVQLVESGGGLVQPGGSLRLSCAASGFTISNNYYMCWVRQAPGKGLEWIACIYGGISGRTYYADSAKGRFTISKDSSKNTVYLQMNSLRAEDTAVYYCVRGYVGTSNLWGQGTLVTVSS
VL: DIQMTQSPSSLSASVGDRVTITCQASQSIYSSLAWYQQKPGKAPKLLIYDASHLASGVPSRFSGSRYGTDFTLTISSVQPEDAATYYCQGGWYSSAATYVPNTFGGGTKVEVKR
Turning to B15, the binding result in assay [3] is “binds”.

B16: v23814 (antibody, human IgG1, kappa, V domains shown)
VH: EVQLVESGGGLVQPGGSLRLSCAASGFTISNNYYMCWVRQAPGKGLEWVSCIYGGISGRTYYADSVKGRFTISKDNSKNTLYLQMNSLRAEDTAVYYCVRGYVGTSNLWGQGTLVTVSS
VL: DIQMTQSPSSLSASVGDRVTITCQASQSIYSSLAWYQQKPGKAPKLLIYDASHLASGVPSRFSGSRYGTDFTLTISSVQPEDAATYYCQGGWYSSAATYVPNTFGGGTKVEVKR
For B16, the binding entry in assay [2] and in assay [3] was “binds” each time.

B17: v23813 (antibody, human IgG1, kappa, V domains shown)
VH: EVQLVESGGGLVQPGGSLRLSCAASGFTISNNYYMCWVRQAPGKGLEWIACIYGGISGRTYYADWAKGRFTISKDSSKNTVYLQMNSLRAEDTAVYYCVRGYVGTSNLWGQGTLVTVSS
VL: DIQMTQSPSSLSASVGDRVTITCQASQSIYSSLAWYQQKPGKAPKLLIYDASHLASGVPSRFSGSGSGTDFTLTISSVQPEDAATYYCQGGWYSSAATYVPNTFGGGTKVEVKR
Regarding B17, the binding result in assay [3] is “binds”.

B18: v29679 (scFv)
scFv: EVQLVESGGGLVQPGGSLRLSCAASGFTISNNYYMCWVRQAPGKGLEWIACIYGGISGRTYYADSAKGRFTISKDSSNTVYLQMNSLRAEDTAVYYCVRGYVGTSNLWGQGTLVTVSSGGGGSGGGGSGGGGSDIQMTQSPSSLSASVGDRVTITCQASQSIYSSLAWYQQKPGKAPKLLIYDASHLASGVPSRFSGSRYGTDFTLTISSVQPEDFATYYCQGGWYSSAATYVPNTFGGGTKVEVK
As for B18, in assay [1], the binding result is recorded as “binds”.

B19: v29683 (scFv)
scFv: EVQLVESGGGLVQPGGSLRLSCAASGFTISNNYYMCWVRQAPGKCLEWIACIYGGISGRTYYADSAKGRFTISKDSSNTVYLQMNSLRAEDTAVYYCVRGYVGTSNLWGQGTLVTVSSGGGGSGGGGSGGGGSDIQMTQSPSSLSASVGDRVTITCQASQSIYSSLAWYQQKPGKAPKLLIYDASHLASGVPSRFSGSRYGTDFTLTISSVQPEDFATYYCQGGWYSSAATYVPNTFGCGTKVEVK
In the case of B19, the binding entry in assay [1] is on record as “binds”.
